These are yes or no findings as the source states them, for the method shown. Binding seen in cells or lysates may run through a third protein. Some results given as binding are weak or reduced against the parent protein; the word gives no strength.
Columns and labels:
Flag-Survivin (T34A) = Flag-Survivin (T34A) (UniProt O15392); test: co-IP; Flag-Survivin WT, T34D or T34A transfected into CNE2 cells 24 h, IR (2 Gy) 24 h, then MG132 6 h; whole cell extract, Co-IP and immunoblot; endogenous FBXL7
Flag-Survivin WT = Flag-Survivin WT (UniProt O15392); test: as above
Flag-Survivin (T34D) = Flag-Survivin (T34D) (UniProt O15392); test: as above
[1] = target: Survivin (human (endogenous in CNE2)) (UniProt O15392); test: co-IP; endogenous proteins; CNE2 shCtrl and shTRAF4 cells, IR (2 Gy) 24 h or not, then MG132 6 h; whole cell extract, IP with FBXL7 or survivin antibody, immunoblot

By UniProt entry, the sequences of proteins in these tests, tags left out. Where a name states a change or a piece, a line headed by the entry shows the natural chain unless it says otherwise.
UniProt O15392: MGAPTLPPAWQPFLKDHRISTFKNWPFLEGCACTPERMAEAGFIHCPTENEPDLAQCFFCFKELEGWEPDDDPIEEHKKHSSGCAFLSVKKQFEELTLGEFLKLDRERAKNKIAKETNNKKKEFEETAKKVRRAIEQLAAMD

Measured: binding

B1: FBXL7 (protein, UniProt Q9UJT9 1-491)
chain: MGANNGKQYGSEGKGSSSISSDVSSSTDHTPTKAQKNVATSEDSDLSMRTLSTPSPALICPPNLPGFQNGRGSSTSSSSITGETVAMVHSPPPTRLTHPLIRLASRPQKEQASIDRLPDHSMVQIFSFLPTNQLCRCARVCRRWYNLAWDPRLWRTIRLTGETINVDRALKVLTRRLCQDTPNVCLMLETVTVSGCRRLTDRGLYTIAQCCPELRRLEVSGCYNISNEAVFDVVSLCPNLEHLDVSGCSKVTCISLTREASIKLSPLHGKQISIRYLDMTDCFVLEDEGLHTIAAHCTQLTHLYLRRCVRLTDEGLRYLVIYCASIKELSVSDCRFVSDFGLREIAKLESRLRYLSIAHCGRVTDVGIRYVAKYCSKLRYLNARGCEGITDHGVEYLAKNCTKLKSLDIGKCPLVSDTGLECLALNCFNLKRLSLKSCESITGQGLQIVAANCFDLQTLNVQDCEVSVEALRFVKRHCKRCVIEHTNPAFF
binds: all assays above

Reference: PMC10750280
